Data from the supplement of paper PMC5949888.
± gives the standard deviation of the averaged measurements. Most values lie at the floor of the assay. Slopes are relative: functional sequences can read slightly below zero.

Each substance was assayed on Saccharomyces cerevisiae PS128 hsf1 delta, HSF1(1-493) fusion (assay: growth estimate (transactivation domain function in HSF1 fusion, heat-shock survival) (a.u. (slope of normalised read count over time)); higher = stronger growth at 37°C, i.e. more transactivation activity). Conditions: library: random library.
In the case of LALRANSCHGVQDGEYRPLC, the growth estimate is reported as < -0.25. With LALSFQTNAAA the growth estimate was < -0.25. LALSN was tested, and the growth estimate was < -0.25. For LALYCKCGVGDAPGVLRAIV, the growth estimate was < -0.25. LANTCQSFELIKSDLMTSVG was tested, and the growth estimate was < -0.25. In the case of LAPAGETYWLGVARFYERTL, the growth estimate is reported as < -0.25. With LAPWCKGC the growth estimate was < -0.25. In the case of LAQALRYSRRGVLRSTTTGP, the growth estimate is reported as < -0.25. LAQLFRG was tested, and the growth estimate was < -0.25. For LAR, the growth estimate was -0.237 ± 0.018. Work on LARCGEEGQ yielded a growth estimate of 0.492. LARGIGGREYSYIARPNPIA was tested, and the growth estimate was < -0.25. LARPIGVPQGESAAARIESR was tested, and the growth estimate was < -0.25. LARYVL was tested, and the growth estimate was < -0.25. With LASEAVSIIPSSPSVGLRRA the growth estimate was -0.243. In the case of LASFEVLYASCPRRTDIRGS, the growth estimate is reported as < -0.25. With LASLERAVFGVKSASAGLMR the growth estimate was < -0.25. In the case of LASNVAAALGEGANGKTSLI, the growth estimate is reported as < -0.25. For LASPGPAV, the growth estimate was < -0.25. With LASRQVTLYIFRDPRWNSSP the growth estimate was < -0.25. With LASRTVQF the growth estimate was < -0.25. In the case of LATIF, the growth estimate is reported as < -0.25. LAVDVEGLRYIKVGMLGTGN was tested, and the growth estimate was < -0.25. For LAVGPRVNDIIVVVIRHVQD, the growth estimate was < -0.25. With LAVILCAL the growth estimate was < -0.25. LAVTRRIYHLTIVSNRIGH was tested, and the growth estimate was < -0.25. With LAWMPQHALQVDQRLHRCLT the growth estimate was < -0.25. For LAWSPWD, the growth estimate was -0.111. In the case of LAYTNADQRHLYCEQFREEG, the growth estimate is reported as < -0.25. In the case of LAYVWKSEPLPGGDRVRRSH, the growth estimate is reported as < -0.25. For LCDGYPVDPARGGRGAVAPT, the growth estimate was < -0.25. For LCDVAGNTSHTLEQRRGERG, the growth estimate was < -0.25. In the case of LCESTTRFSNWTS, the growth estimate is reported as < -0.25. For LCFRTFLCSAKIGYANCKDP, the growth estimate was < -0.25. With LCFTRQGSGRSPKVGSQTSA the growth estimate was < -0.25. In the case of LCGPYQDRGQSFYLQLTG, the growth estimate is reported as < -0.25. In the case of LCGTTTIGCSSVALIASRVP, the growth estimate is reported as < -0.25. In the case of LCISGVPHLQTR, the growth estimate is reported as < -0.25. For LCKPITLQIY, the growth estimate was < -0.25. For LCLLVRCSDIRRRLLAIR, the growth estimate was -0.229. For LCLVFSIPA, the growth estimate was < -0.25. LCLVSLAVTPPGTLISLSHR was tested, and the growth estimate was < -0.25. For LCPDGTVLHNIAPTLEGRPA, the growth estimate was < -0.25. LCPLKGYH showed a growth estimate of -0.243. Work on LCPSVTVVKGVTQTHPLLPA yielded a growth estimate of -0.229. For LCPVFPG, the growth estimate was < -0.25. LCR was tested, and the growth estimate was < -0.25. With LCRCRTTTTGWA the growth estimate was < -0.25. In the case of LCRGLLGWNVEAAMAWSVRS, the growth estimate is reported as < -0.25. For LCRKPMKCKGNLKNCRYSLW, the growth estimate was < -0.25. In the case of LCRQHLELDCPALSLGSVRS, the growth estimate is reported as < -0.25. With LCRQVGC the growth estimate was < -0.25. In the case of LCRRPRK, the growth estimate is reported as < -0.25. With LCSHILFR the growth estimate was < -0.25. In the case of LCSIYGTADCTAGGPQRMRL, the growth estimate is reported as < -0.25. In the case of LCSLK, the growth estimate is reported as < -0.25. For LCSVCPYRFNTFL, the growth estimate was < -0.25. For LCSWTGGNISDLSGGELSFS, the growth estimate was -0.227. With LCTERNRRCNRL the growth estimate was < -0.25. LCTGKHRGAIIDNLVVRNVG was tested, and the growth estimate was < -0.25. LCTHSGLWRNPSNYRFGQAA was tested, and the growth estimate was < -0.25. LCTRLPRVGRAAIHATREMD was tested, and the growth estimate was < -0.25. LCVSSGLMSSPHDGFTRIGM was tested, and the growth estimate was -0.209. LCWNLLLVA was tested, and the growth estimate was < -0.25. For LDAT, the growth estimate was < -0.25. With LDDPPKGNSQVASRVGAHWH the growth estimate was < -0.25. In the case of LDESGAF, the growth estimate is reported as < -0.25. In the case of LDETLVGPKT, the growth estimate is reported as < -0.25. In the case of LDF, the growth estimate is reported as < -0.25. LDGELFFR was tested, and the growth estimate was < -0.25. In the case of LDGIRLPRLILCVSQLV, the growth estimate is reported as < -0.25. In the case of LDHATPNALERGYRAQGSPY, the growth estimate is reported as < -0.25. With LDHLFV the growth estimate was < -0.25. For LDHQIRAKRVLCAGACIVEG, the growth estimate was < -0.25. LDHV was tested, and the growth estimate was < -0.25. For LDI, the growth estimate was < -0.25. For LDIAFLATGTAENCGCPHQI, the growth estimate was < -0.25. LDL was tested, and the growth estimate was < -0.25. For LDLDPQP, the growth estimate was < -0.25. LDLLGKQFQSHSLSVTNYDN was tested, and the growth estimate was < -0.25. For LDLQPP, the growth estimate was < -0.25. With LDNGNRGVIGVDRTLSHEVL the growth estimate was < -0.25. For LDNQYLRIVSWVTVSTSTVH, the growth estimate was < -0.25. LDPESWYGAAKDHVNRIL was tested, and the growth estimate was < -0.25. For LDPWRAVTLYFTRWLSKATS, the growth estimate was < -0.25. With LDQDRPGAVIPDRPVFKCHS the growth estimate was < -0.25. For LDQSSGYTAFIYAPFTTPRA, the growth estimate was < -0.25. In the case of LDRGCVDISV, the growth estimate is reported as < -0.25. In the case of LDRNGLAGNSVSNILNAYLG, the growth estimate is reported as < -0.25. In the case of LDRPTVLWDNTLGEHKGLFL, the growth estimate is reported as < -0.25. With LDRRLGLLTTVS the growth estimate was < -0.25. LDRSALRHGSTKH was tested, and the growth estimate was < -0.25. With LDSEFCVRVTYDEQLV the growth estimate was < -0.25. LDTAGGHAVVHPVCVGSDKS was tested, and the growth estimate was < -0.25. LDTCRTTSESGTWTLVP was tested, and the growth estimate was < -0.25. For LDTRPWGPDPGLDSNSFALG, the growth estimate was < -0.25. In the case of LDVLTLKMTTT, the growth estimate is reported as < -0.25. LDWNAPTTAWTDGVSVRERG was tested, and the growth estimate was < -0.25. With LECLLSAT the growth estimate was < -0.25. In the case of LECRGPQP, the growth estimate is reported as < -0.25. LECSSCLMHNASAGRGCACD was tested, and the growth estimate was < -0.25.
